In patent publication US20130143238A1 (BAXTER HEALTHCARE S A, published 2013):
No constants are given. Whether binding was seen depends on the method and setting. Some binding calls cover weakened binding; strength is not graded here.

Protein sequences, listed by entry. Tags and fused reporters are not part of them. Residues count along the entry.
UniProt P28906, residues 32-385: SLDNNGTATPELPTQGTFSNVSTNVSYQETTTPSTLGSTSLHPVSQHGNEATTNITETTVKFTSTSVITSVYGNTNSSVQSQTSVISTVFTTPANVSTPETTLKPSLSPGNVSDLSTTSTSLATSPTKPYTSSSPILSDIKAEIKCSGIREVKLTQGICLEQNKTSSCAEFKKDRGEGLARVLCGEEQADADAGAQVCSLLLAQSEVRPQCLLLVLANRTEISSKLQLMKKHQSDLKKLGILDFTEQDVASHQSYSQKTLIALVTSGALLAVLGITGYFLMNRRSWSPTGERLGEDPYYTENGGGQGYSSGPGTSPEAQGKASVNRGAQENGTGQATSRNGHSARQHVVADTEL

Molecular target: human cluster designation 34 (CD34) antigen on the surface of TF-1 cells (human) (UniProt P28906)
Test: dose response and competition cell capture assays, TF-1 cells

binding: binds
B1: recombinant anti-CD34 antibody produced by stable CHO-DXB11 cell lines (evaluation cell banks ECB1 to ECB9) (antibody, mouse IgG1, V domains shown)
VH: EVQLQQSGPELVKPGASVKISCKASGYSFIGYFMNWVMQSHGRSLEWIGRINPYNGYTFYNQKFKGKATLTVDKSSSTAHMELRSLASEDSAVYYCARHFRYDGVFYYAMDYWGQGTSVTVSS
VL: QLVLTQSSSASFSLGASAKLTCTLSSQHSTFTIEWYQQQPLKPPKYVMDLKKDGSHSTGDGVPDRFSGSSSGADRYLSISNIQPEDEATYICGVGDTIKEQFVYVFGGGTKVTVLG
